No constants are given. Whether binding was seen depends on the method and setting. In cells and extracts the contact can be indirect. Some binding calls cover weakened binding; strength is not graded here.
Target: CDK4 (human (endogenous in U2OS)) (UniProt P11802)
Experiment: co-IP; CDK4 immunoprecipitated with anti-CDK4 antibody (H22) and Protein G Dynabeads from lysates of U2OS cells transfected with p16, p16-ACT, p14ARF, chARF or control; non-denaturing lysis buffer (50 mM Tris-HCl pH 8.0, 150 mM NaCl, 10% glycerol, 1% Igepal CA-630, 1 mM EDTA), 4°C; immunoblot of the precipitate

The chains behind the UniProt entries cited, without tags or fusion partners.
UniProt P11802: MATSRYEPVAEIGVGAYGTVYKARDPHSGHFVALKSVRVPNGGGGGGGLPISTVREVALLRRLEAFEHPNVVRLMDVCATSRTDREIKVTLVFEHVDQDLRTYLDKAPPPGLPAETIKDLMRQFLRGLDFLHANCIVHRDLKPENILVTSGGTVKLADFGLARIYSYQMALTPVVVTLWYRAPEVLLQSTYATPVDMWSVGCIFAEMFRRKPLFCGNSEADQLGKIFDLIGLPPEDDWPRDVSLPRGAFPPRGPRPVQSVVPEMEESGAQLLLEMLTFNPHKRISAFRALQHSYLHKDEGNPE
UniProt P24385: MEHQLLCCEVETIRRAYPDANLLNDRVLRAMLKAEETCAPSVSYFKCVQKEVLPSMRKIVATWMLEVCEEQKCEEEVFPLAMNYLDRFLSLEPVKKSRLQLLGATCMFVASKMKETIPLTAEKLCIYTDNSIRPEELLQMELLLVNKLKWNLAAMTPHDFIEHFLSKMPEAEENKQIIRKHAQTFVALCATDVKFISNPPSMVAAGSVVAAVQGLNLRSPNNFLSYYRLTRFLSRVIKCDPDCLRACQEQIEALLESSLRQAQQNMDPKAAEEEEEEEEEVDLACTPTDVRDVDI

Substance: cyclin D1 (from UniProt P24385 1-295)
- binding: binds

Reference: paper PMC3914946
